Laboratory results reported in the supplement of paper PMC6411743.
± gives the standard deviation of the averaged measurements. This is a selection; strong and weak results do not stand in their true shares.

Sequences of proteins named here, by UniProt entry; tags and fusion partners are left off. A change or cut given only in a name is not applied to a line headed by its entry.
UniProt Q14571, whole entry: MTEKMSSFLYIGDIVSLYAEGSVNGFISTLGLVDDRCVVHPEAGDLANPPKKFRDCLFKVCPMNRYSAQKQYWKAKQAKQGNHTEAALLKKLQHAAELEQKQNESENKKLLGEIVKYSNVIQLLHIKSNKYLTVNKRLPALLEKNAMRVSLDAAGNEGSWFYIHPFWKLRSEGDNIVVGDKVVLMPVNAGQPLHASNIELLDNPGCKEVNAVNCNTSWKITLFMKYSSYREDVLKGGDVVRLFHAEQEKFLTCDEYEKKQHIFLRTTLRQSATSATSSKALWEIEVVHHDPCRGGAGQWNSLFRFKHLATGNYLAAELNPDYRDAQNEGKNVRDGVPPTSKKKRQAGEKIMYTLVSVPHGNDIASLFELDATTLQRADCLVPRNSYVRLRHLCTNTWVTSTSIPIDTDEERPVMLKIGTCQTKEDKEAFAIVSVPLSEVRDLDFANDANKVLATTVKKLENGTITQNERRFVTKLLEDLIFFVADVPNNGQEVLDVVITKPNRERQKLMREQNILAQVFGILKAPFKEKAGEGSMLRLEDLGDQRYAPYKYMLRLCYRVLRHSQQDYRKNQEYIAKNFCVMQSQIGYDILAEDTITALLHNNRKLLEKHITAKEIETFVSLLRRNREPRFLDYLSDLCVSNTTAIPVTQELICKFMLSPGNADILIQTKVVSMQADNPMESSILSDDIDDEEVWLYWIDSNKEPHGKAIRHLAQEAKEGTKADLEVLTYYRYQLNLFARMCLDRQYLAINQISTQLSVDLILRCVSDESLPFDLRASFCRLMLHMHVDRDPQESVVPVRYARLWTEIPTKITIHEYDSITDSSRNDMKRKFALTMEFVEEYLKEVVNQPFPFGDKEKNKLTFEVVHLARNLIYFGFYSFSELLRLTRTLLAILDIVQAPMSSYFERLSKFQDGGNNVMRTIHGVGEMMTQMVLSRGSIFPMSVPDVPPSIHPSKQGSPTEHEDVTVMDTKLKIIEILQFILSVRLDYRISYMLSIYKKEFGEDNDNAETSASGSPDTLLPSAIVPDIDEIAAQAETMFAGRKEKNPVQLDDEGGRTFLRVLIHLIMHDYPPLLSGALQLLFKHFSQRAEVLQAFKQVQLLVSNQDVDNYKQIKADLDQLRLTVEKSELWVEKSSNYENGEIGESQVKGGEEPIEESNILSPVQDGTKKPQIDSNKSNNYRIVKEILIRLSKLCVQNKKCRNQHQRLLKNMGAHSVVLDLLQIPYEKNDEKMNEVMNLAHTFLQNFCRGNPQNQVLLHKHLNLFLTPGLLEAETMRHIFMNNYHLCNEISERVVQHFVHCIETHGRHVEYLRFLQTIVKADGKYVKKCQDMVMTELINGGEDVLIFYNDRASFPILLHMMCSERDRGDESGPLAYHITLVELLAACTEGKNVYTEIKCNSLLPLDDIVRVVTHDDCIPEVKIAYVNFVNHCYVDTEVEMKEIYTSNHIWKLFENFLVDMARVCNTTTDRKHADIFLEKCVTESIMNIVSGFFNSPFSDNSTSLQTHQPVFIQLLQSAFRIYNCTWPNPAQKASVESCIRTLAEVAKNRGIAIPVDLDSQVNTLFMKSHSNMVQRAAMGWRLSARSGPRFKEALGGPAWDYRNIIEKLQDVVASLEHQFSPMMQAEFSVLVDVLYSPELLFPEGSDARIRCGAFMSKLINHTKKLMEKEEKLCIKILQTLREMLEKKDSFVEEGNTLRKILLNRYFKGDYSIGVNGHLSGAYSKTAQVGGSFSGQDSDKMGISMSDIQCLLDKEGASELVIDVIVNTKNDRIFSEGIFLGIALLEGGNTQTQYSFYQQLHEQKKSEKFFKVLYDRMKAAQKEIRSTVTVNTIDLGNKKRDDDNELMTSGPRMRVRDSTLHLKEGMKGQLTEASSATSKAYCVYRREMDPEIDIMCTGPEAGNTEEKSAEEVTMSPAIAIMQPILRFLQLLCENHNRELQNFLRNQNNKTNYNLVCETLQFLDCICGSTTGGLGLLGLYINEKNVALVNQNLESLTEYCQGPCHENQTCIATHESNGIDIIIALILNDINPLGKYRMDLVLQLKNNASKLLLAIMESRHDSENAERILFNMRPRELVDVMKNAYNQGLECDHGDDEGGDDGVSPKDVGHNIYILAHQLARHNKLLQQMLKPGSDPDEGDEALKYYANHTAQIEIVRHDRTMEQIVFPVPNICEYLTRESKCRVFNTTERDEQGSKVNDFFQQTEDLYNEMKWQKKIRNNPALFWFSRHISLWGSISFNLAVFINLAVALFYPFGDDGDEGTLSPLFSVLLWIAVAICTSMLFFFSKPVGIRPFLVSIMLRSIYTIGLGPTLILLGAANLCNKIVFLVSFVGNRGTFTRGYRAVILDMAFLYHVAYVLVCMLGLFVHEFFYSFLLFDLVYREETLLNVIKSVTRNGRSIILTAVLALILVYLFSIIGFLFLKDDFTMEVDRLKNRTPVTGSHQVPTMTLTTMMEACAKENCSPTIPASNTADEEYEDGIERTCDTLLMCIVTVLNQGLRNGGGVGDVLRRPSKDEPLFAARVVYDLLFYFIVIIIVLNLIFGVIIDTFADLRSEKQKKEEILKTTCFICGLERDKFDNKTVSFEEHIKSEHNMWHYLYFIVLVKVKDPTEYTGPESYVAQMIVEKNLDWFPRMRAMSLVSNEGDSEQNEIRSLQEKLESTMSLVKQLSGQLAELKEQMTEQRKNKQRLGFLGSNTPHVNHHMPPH
UniProt Q16533: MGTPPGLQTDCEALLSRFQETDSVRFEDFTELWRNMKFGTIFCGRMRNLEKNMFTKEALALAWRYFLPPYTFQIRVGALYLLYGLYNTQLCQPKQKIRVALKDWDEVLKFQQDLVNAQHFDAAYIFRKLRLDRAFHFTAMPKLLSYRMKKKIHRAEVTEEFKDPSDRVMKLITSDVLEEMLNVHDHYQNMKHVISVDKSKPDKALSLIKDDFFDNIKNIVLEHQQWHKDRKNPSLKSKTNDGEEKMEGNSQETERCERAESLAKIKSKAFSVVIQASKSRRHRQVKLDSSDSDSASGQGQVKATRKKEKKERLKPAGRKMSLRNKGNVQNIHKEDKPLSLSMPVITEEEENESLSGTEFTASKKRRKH
UniProt Q15554: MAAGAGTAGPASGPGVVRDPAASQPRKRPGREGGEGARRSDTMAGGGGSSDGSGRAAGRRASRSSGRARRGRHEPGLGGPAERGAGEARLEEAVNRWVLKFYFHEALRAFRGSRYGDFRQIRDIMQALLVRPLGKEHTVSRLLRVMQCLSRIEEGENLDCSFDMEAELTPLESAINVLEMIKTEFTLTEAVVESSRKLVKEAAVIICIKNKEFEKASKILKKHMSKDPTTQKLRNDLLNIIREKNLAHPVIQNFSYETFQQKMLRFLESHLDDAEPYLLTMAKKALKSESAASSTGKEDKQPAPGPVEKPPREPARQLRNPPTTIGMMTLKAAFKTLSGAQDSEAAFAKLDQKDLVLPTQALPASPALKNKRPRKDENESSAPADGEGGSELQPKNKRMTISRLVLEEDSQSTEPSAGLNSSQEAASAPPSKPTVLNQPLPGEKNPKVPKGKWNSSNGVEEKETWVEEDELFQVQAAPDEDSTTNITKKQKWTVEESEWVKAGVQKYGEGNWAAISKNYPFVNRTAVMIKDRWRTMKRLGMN
UniProt Q15691: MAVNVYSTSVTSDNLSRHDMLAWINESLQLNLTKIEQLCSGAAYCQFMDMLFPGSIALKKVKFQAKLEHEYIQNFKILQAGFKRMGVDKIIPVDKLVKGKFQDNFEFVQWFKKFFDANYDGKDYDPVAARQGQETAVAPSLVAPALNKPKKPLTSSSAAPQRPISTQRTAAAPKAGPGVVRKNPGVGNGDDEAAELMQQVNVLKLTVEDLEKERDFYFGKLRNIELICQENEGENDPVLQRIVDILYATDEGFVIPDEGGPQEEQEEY
UniProt Q15365, whole entry: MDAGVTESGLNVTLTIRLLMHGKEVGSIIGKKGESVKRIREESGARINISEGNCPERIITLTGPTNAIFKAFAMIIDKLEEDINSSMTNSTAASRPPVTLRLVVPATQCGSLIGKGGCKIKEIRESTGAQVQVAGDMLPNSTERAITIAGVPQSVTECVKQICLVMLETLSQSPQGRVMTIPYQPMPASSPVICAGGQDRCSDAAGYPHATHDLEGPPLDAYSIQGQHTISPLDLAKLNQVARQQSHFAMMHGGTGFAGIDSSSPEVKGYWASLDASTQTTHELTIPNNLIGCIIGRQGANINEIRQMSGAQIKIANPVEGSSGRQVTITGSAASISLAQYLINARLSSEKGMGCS
UniProt Q14686, whole entry: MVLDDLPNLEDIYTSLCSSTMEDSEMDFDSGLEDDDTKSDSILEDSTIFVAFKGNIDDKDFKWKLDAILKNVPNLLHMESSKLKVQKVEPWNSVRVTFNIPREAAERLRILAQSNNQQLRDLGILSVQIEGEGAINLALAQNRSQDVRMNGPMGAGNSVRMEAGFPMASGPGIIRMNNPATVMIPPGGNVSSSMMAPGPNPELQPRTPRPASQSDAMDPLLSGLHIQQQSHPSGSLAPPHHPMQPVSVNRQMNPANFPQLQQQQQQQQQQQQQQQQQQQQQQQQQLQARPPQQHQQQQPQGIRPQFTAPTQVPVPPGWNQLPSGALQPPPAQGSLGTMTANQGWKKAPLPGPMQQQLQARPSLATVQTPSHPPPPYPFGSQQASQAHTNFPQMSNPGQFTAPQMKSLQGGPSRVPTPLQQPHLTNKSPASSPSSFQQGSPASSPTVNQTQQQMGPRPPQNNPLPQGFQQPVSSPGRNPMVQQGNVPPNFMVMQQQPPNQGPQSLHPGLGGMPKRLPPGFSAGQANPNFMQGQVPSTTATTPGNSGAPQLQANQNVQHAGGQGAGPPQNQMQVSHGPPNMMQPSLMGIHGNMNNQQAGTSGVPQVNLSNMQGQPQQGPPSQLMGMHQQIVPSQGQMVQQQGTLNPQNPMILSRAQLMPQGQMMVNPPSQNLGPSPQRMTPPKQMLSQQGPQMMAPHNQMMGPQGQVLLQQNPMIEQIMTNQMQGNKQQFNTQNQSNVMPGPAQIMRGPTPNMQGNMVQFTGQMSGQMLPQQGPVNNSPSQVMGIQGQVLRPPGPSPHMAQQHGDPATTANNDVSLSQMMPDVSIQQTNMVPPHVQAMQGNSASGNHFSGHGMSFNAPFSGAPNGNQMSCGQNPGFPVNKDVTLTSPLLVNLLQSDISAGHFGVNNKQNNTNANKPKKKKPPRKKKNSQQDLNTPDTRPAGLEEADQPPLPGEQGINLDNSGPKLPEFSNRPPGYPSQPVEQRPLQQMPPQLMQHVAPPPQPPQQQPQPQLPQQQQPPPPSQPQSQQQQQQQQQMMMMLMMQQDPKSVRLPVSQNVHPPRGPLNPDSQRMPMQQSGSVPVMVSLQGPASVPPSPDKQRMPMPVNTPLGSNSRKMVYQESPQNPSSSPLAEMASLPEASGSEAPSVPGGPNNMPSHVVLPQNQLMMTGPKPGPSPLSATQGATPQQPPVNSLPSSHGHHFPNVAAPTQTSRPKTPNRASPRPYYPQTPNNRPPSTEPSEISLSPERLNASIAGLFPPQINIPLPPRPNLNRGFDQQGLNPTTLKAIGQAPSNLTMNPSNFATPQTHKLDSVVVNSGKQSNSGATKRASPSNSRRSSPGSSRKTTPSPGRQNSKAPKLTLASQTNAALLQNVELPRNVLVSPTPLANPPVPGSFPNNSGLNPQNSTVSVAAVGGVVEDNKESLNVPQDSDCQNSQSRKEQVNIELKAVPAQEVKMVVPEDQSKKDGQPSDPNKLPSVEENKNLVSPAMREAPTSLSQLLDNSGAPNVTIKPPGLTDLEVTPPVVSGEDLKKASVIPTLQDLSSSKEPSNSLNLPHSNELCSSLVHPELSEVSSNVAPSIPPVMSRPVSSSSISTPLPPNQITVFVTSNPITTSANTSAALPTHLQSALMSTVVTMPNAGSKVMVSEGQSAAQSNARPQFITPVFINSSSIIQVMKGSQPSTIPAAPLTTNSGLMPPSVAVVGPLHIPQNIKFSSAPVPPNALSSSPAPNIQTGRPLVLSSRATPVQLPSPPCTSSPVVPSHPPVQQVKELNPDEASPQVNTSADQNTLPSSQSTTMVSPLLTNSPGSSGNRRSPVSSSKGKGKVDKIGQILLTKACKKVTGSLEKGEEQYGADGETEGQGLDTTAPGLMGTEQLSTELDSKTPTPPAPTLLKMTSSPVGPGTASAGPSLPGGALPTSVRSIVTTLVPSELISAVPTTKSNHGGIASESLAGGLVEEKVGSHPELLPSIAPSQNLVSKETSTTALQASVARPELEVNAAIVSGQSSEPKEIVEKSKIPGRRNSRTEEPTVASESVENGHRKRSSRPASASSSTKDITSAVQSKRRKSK
UniProt Q16854: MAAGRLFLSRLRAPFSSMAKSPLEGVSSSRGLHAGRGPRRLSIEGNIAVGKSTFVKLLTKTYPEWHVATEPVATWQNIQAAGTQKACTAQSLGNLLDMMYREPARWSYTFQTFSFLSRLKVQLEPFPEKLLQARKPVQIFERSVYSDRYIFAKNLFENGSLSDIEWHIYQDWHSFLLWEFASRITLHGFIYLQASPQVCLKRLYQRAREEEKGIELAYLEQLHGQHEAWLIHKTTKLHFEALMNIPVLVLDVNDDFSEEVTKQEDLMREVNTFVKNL

Compound: Nc1ncnc2c1ncn2[C@@H]1O[C@H](COP(=O)(O)OP(=O)(O)OP(=O)(O)O)[C@@H](O)[C@H]1O [adenosine triphosphate]
Assay: NP40-soluble protein abundance relative to vehicle (solubility fold change) (ratio); higher = more soluble protein in presence of ATP
Method in brief: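 Data come from three independent experiments in which Dounce-homogenised Jurkat crude lysate was treated at eight concentrations from 0.1 to 10 mM. Treatment ran 10 min at room temperature and then 3 min at 37 °C, after which 0.8% NP40 and benzonase were added for 60 min at 4 °C before ultracentrifugation. The supernatant underwent TMT labelling and LC-MS/MS, and vsn-normalised intensities were expressed as fold change against the detergent-processed vehicle in each replicate.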

Target	NP40-soluble protein abundance (concentration: 1mM)	NP40-soluble protein abundance (concentration: 2mM)	NP40-soluble protein abundance (concentration: 4mM)	NP40-soluble protein abundance (concentration: 6mM)	NP40-soluble protein abundance (concentration: 8mM)	NP40-soluble protein abundance (concentration: 10mM)
WDR43 (UniProt Q15061)	1.19 ± 0.27	1.11 ± 0.015	1.26 ± 0.063	1.41 ± 0.12	1.39 ± 0.087	1.51 ± 0.027
GNPTAB (UniProt Q3T906)	0.954 ± 0.14	0.921 ± 0.14	0.975 ± 0.07	1.02 ± 0.19	0.943 ± 0.092	0.926 ± 0.1
E2F4 (UniProt Q16254)	0.955 ± 0.014	0.991 ± 0.029	1.01 ± 0.054	0.999 ± 0.025	0.941 ± 0.053	0.973 ± 0.021
UniProt Q15633 and related entries	0.945 ± 0.047	1.01 ± 0.042	1 ± 0.087	1 ± 0.066	0.953 ± 0.05	1.01 ± 0.024
Q15392 and related entries (UniProt Q3LIE7+Q15392)	0.974 ± 0.073	0.999 ± 0.11	1.01 ± 0.046	0.84668 ± 0.00015	1.06 ± 0.015	1.03 ± 0.044
TOMM34 (UniProt Q15785)	0.908 ± 0.053	0.97 ± 0.016	0.927 ± 0.012	0.984 ± 0.021	0.912 ± 0.022	0.902 ± 0.051
UniProt Q15650 and related entries	0.885 ± 0.13	0.833 ± 0.14	0.881 ± 0.18	0.916 ± 0.12	0.971 ± 0.14	1.04 ± 0.15
UniProt Q15583 and related entries	0.924 ± 0.024	0.973 ± 0.012	0.93 ± 0.012	0.936 ± 0.012	0.819 ± 0.016	0.938 ± 0.015
ITPR2 (UniProt Q14571)	1.11 ± 0.11	1.07 ± 0.056	1.05 ± 0.059	1.04 ± 0.045	1.15 ± 0.031	1.12 ± 0.057
SEC23B (UniProt Q15437)	1.04 ± 0.14	1.02 ± 0.086	1.05 ± 0.098	0.928 ± 0.15	1.05 ± 0.035	1.04 ± 0.054
WRN (UniProt Q14191)	1.24 ± 0.023	1.21 ± 0.068	1.28 ± 0.061	1.26 ± 0.11	1.34 ± 0.16	1.29 ± 0.038
GINS1 (UniProt Q14691)	0.962 ± 0.03	0.966 ± 0.013	0.961 ± 0.022	0.955 ± 0.046	0.929 ± 0.046	0.897 ± 0.083
UniProt Q15560 and related entries	1.03 ± 0.075	0.941 ± 0.046	1.06 ± 0.059	1.06 ± 0.049	0.932 ± 0.062	1.05 ± 0.075
UniProt Q15723 and related entries	0.915 ± 0.12	0.977 ± 0.051	0.972 ± 0.052	0.986 ± 0.1	0.97 ± 0.095	0.933 ± 0.086
PGGHG (UniProt Q32M88)	0.974 ± 0.14	1.02 ± 0.1	0.983 ± 0.09	0.941 ± 0.037	1.07 ± 0.13	1.06 ± 0.12
SNAPC1 (UniProt Q16533)	0.946 ± 0.064	1.06 ± 0.067	1.1 ± 0.079	1.07 ± 0.055	1.11 ± 0.11	1.1 ± 0.056
LBR (UniProt Q14739)	0.876 ± 0.075	0.824 ± 0.068	0.788 ± 0.063	0.782 ± 0.058	0.803 ± 0.067	0.767 ± 0.064
SLC1A5 (UniProt Q15758)	0.934 ± 0.061	0.917 ± 0.026	0.925 ± 0.043	0.902 ± 0.049	0.882 ± 0.025	0.897 ± 0.026
TRIM25 (UniProt Q14258)	1 ± 0.013	0.996 ± 0.028	0.965 ± 0.014	1.01 ± 0.04	0.975 ± 0.045	0.984 ± 0.024
HNRNPUL2 (UniProt Q1KMD3)	1.03 ± 0.033	0.956 ± 0.059	0.939 ± 0.082	0.963 ± 0.17	0.979 ± 0.14	0.989 ± 0.14

Quoted at random: 3 records from the list, in no set order.
Target	NP40-soluble protein abundance (concentration: 1mM)	NP40-soluble protein abundance (concentration: 2mM)	NP40-soluble protein abundance (concentration: 4mM)	NP40-soluble protein abundance (concentration: 6mM)	NP40-soluble protein abundance (concentration: 8mM)	NP40-soluble protein abundance (concentration: 10mM)
ITPR2 (UniProt Q14571)	1.11 ± 0.11	1.07 ± 0.056	1.05 ± 0.059	1.04 ± 0.045	1.15 ± 0.031	1.12 ± 0.057
SEC23B (UniProt Q15437)	1.04 ± 0.14	1.02 ± 0.086	1.05 ± 0.098	0.928 ± 0.15	1.05 ± 0.035	1.04 ± 0.054
UniProt Q15650 and related entries	0.885 ± 0.13	0.833 ± 0.14	0.881 ± 0.18	0.916 ± 0.12	0.971 ± 0.14	1.04 ± 0.15

The results go on:

Target	NP40-soluble protein abundance (concentration: 1mM)	NP40-soluble protein abundance (concentration: 2mM)	NP40-soluble protein abundance (concentration: 4mM)	NP40-soluble protein abundance (concentration: 6mM)	NP40-soluble protein abundance (concentration: 8mM)	NP40-soluble protein abundance (concentration: 10mM)
TFDP1 (UniProt Q14186)	0.997 ± 0.07	0.974 ± 0.073	1 ± 0.025	1.03 ± 0.038	0.969 ± 0.11	0.981 ± 0.067
UniProt Q4G0N4	0.991 ± 0.073	0.986 ± 0.035	0.971 ± 0.066	0.956 ± 0.11	0.993 ± 0.056	0.981 ± 0.05
UniProt Q15542 and related entries	1.13 ± 0.088	1.14 ± 0.074	1.18 ± 0.092	1.18 ± 0.12	1.18 ± 0.13	1.2 ± 0.064
UniProt Q16537 and related entries	1.02 ± 0.06	1.04 ± 0.05	1.01 ± 0.032	1.05 ± 0.011	0.987 ± 0.018	1.01 ± 0.075
UniProt Q16718 and related entries	0.966 ± 0.13	0.912 ± 0.16	0.898 ± 0.14	0.977 ± 0.2	0.934 ± 0.14	0.862 ± 0.14
MLEC (UniProt Q14165)	0.984 ± 0.033	0.973 ± 0.016	0.9424 ± 0.0072	0.936 ± 0.074	0.942 ± 0.0095	0.954 ± 0.041
UniProt Q14790-2|Q14790-4|Q14790-6|Q14790-9|Q14790-5	1.02 ± 0.1	0.998 ± 0.066	1 ± 0.058	0.971 ± 0.15	1.01 ± 0.063	1.02 ± 0.053
UniProt Q16576 and related entries	1.04 ± 0.013	0.993 ± 0.0099	1 ± 0.038	0.989 ± 0.038	1 ± 0.046	0.954 ± 0.019
TERF2 (UniProt Q15554)	1.03 ± 0.033	1.071 ± 0.01	1.08 ± 0.017	1.09 ± 0.012	1.06 ± 0.019	1.11 ± 0.022
CD226 (UniProt Q15762)	1.06 ± 0.11	0.908 ± 0.056	0.967 ± 0.055	0.959 ± 0.048	0.952 ± 0.058	0.936 ± 0.098
QPRT (UniProt Q15274)	0.94 ± 0.052	0.948 ± 0.044	0.931 ± 0.024	0.914 ± 0.034	0.932 ± 0.068	0.945 ± 0.035
UniProt Q14789 and related entries	0.971 ± 0.035	0.97 ± 0.031	0.967 ± 0.031	1 ± 0.048	0.941 ± 0.025	0.949 ± 0.017
TST (UniProt Q16762)	0.966 ± 0.076	0.966 ± 0.058	1 ± 0.04	0.937 ± 0.1	0.962 ± 0.025	0.949 ± 0.054
UniProt Q14684 and related entries	1.01 ± 0.051	1.03 ± 0.017	1.05 ± 0.025	1.12 ± 0.021	1.089 ± 0.0036	1.1 ± 0.041
MAPRE1 (UniProt Q15691)	0.913 ± 0.077	0.914 ± 0.031	0.879 ± 0.033	0.934 ± 0.053	0.881 ± 0.032	0.849 ± 0.041
UniProt Q14934 and related entries	0.949 ± 0.14	1.06 ± 0.1	1.06 ± 0.15	1.15 ± 0.094	1.07 ± 0.18	1.05 ± 0.083
UniProt Q15365	1.02 ± 0.036	1.01 ± 0.032	1.014 ± 0.0066	1.04 ± 0.018	0.985 ± 0.014	0.973 ± 0.032
UniProt Q15811 and related entries	0.956 ± 0.052	0.961 ± 0.019	0.9578 ± 0.0036	0.98 ± 0.0019	0.956 ± 0.018	0.972 ± 0.04
NCOA6 (UniProt Q14686)	0.971 ± 0.083	0.958 ± 0.024	0.942 ± 0.026	0.991 ± 0.078	0.9368 ± 0.0043	0.964 ± 0.03
SF3A1 (UniProt Q15459)	1.05 ± 0.03	1.07 ± 0.022	1.05 ± 0.037	1.09 ± 0.022	1.06 ± 0.05	1.09 ± 0.035

Target	NP40-soluble protein abundance (concentration: 1mM)	NP40-soluble protein abundance (concentration: 2mM)	NP40-soluble protein abundance (concentration: 4mM)	NP40-soluble protein abundance (concentration: 6mM)	NP40-soluble protein abundance (concentration: 8mM)	NP40-soluble protein abundance (concentration: 10mM)
TRADD (UniProt Q15628)	1.02 ± 0.044	0.96 ± 0.029	0.95 ± 0.011	0.939 ± 0.013	0.926 ± 0.072	0.911 ± 0.048
DGUOK (UniProt Q16854)	1.02 ± 0.11	1.01 ± 0.074	1.01 ± 0.087	0.963 ± 0.14	1.02 ± 0.084	0.997 ± 0.084
UniProt Q14156 and related entries	1.02 ± 0.073	1.04 ± 0.04	1.02 ± 0.1	0.991 ± 0.042	1.17 ± 0.037	1.01 ± 0.058
UBXN2B (UniProt Q14CS0)	0.914 ± 0.057	0.963 ± 0.028	1 ± 0.05	1.01 ± 0.02	0.827 ± 0.11	0.9282 ± 0.0053
UniProt Q3T8J9-3	1.03 ± 0.091	1.06 ± 0.052	1.038 ± 0.0039	1.1 ± 0.1	1.01 ± 0.036	1.05 ± 0.04
UniProt Q15043 and related entries	0.917 ± 0.069	0.963 ± 0.09	0.94 ± 0.072	0.958 ± 0.09	0.919 ± 0.075	0.896 ± 0.098
ZNF146 (UniProt Q15072)	1.02 ± 0.05	0.986 ± 0.082	1.03 ± 0.03	0.976 ± 0.089	1.1 ± 0.13	1.06 ± 0.078
RHEB (UniProt Q15382)	0.969 ± 0.029	0.9528 ± 0.0065	0.927 ± 0.022	0.97 ± 0.053	0.931 ± 0.056	0.9304 ± 0.0056
UniProt Q2M1P5	1.08 ± 0.3	0.945 ± 0.2	0.946 ± 0.2	0.826 ± 0.2	1 ± 0.085	0.964 ± 0.11
UniProt Q3B7T1	0.994 ± 0.022	0.99 ± 0.03	1.03 ± 0.033	0.986 ± 0.047	1.03 ± 0.034	1.04 ± 0.018
RAB11B (UniProt Q15907)	1.07 ± 0.1	1.04 ± 0.053	1.03 ± 0.18	1.04 ± 0.096	0.982 ± 0.16	0.938 ± 0.12
UniProt Q460N5 and related entries	1.01 ± 0.046	1.02 ± 0.035	1.01 ± 0.043	0.993 ± 0.054	1.02 ± 0.049	1.03 ± 0.028
FZD2 (UniProt Q14332)	1.008 ± 0.01	0.99 ± 0.051	1.05 ± 0.1	0.956 ± 0.22	0.905 ± 0.064	1.01 ± 0.099
GAMT (UniProt Q14353)	1.03 ± 0.034	1.03 ± 0.053	1.01 ± 0.087	0.968 ± 0.041	0.997 ± 0.041	1.03 ± 0.014
EIF2B1 (UniProt Q14232)	0.937 ± 0.056	0.965 ± 0.043	0.9264 ± 0.006	0.871 ± 0.097	0.912 ± 0.024	0.951 ± 0.032
UniProt Q4J6C6 and related entries	1.03 ± 0.054	1.04 ± 0.07	1.02 ± 0.088	0.989 ± 0.083	1.03 ± 0.058	1.01 ± 0.068
UniProt Q14CB8 and related entries	1.26 ± 0.11	1.25 ± 0.088	1.25 ± 0.13	1.28 ± 0.093	1.24 ± 0.1	1.3 ± 0.13
UniProt Q14534 and related entries	1 ± 0.092	1.02 ± 0.053	1.04 ± 0.076	0.934 ± 0.08	1.01 ± 0.043	1.05 ± 0.1
SPA17 (UniProt Q15506)	0.919 ± 0.15	0.925 ± 0.04	0.987 ± 0.088	0.92 ± 0.14	0.888 ± 0.06	0.916 ± 0.069
PPP1R7 (UniProt Q15435)	0.95 ± 0.04	0.935 ± 0.031	0.903 ± 0.026	0.911 ± 0.078	0.91 ± 0.035	0.89 ± 0.036
